Earlier results, collected in paper PMC7686577, “Discovery of Novel IDH1 Inhibitor Through Comparative Structure-Based Virtual Screening” (Frontiers in Pharmacology, 2020).

Molecular target: IDH1^R132H mutant
Details: ref Zheng et al., 2017; cited from earlier work

**Q.** With `CCN(CC)CCOc1ccc(C(=C(Cl)c2ccccc2)c2ccccc2)cc1` [clomifene] as the compound, how does the Kd read?
**A.** 18.4 µM
